From patent EP3118613B1, “ELECTRIC COMPONENT WITH ORGANIC PART” (ACREO SWEDISH ICT AB, priority 2015, dated 2017)

Test system: xylem vascular system of roses
Experiment: Uptake from aqueous solution and wire formation in the xylem of rose cuttings
Design: species or system Rosa floribunda
Conditions: 1 mg/ml aqueous solution, cut rose stem immersed
Procedure: We chose to use cuttings of Rosa floribunda (garden rose) as our model plant system. The lower part of a rose stem was cut and the fresh cross section was immersed in an aqueous PEDOT-S:H solution for 24-48 h (Fig. 7A), during which time the PEDOT-S:H solution was taken up into the xylem vascular channel and transported apically. The rose was taken from the solution and rinsed in water. The outer bark, cortex and phloem of the bottom part of the stem were then gently peeled off, exposing dark continuous lines along individual 20-100 µm wide xylem channels (Fig. 7B-D). These "wires" extended more than 5 cm along the stem. From optical and scanning electron microscope images of fresh and freeze-dried stems, we conclude that the PEDOT-S:H formed dense and homogenous wires occupying the entire xylem tubular channel. PEDOT-S:H is known to form hydrogels in aqueous-rich environments, in particular in the presence of divalent cations, and we assume that this is also the case for the wires established along the xylem channels of rose stems. The conductivity of PEDOT-S:H wires was measured using two Au probes applied into individual PEDOT-S:H xylem wires along the stem (Fig. 7D). From the linear fit of resistance versus distance between the contacts, we found electrical conductivity reading 0.13 S/cm with contact resistance ∼10 kΩ (Fig. 7E). […]

## exo-EDOT-Thiophene-EDOT-alkoxylfonate [compound 1]
  length of continuous wires along stem or petiole: at least 9 cm
Listed as ETE-S
  length of continuous wires along stem or petiole: more than 10 cm
